# Some of the results follow.
# B1: SAOUHSC 02783 (Staphylococcus aureus), Q5HD69 (protein)
# chain: MIHSKKLTLGICLVLLIILIVGYVIMTKTNGRNAQIKDTFNQTLKLYPTKNLDDFYDKEGFRDQEFKKGDKGTWIVNSEMVIEPKGKDMETRGMVLYINRNTRTTKGYYFISEMTDDSNGRPKDDEKRYPVKMEHNKIIPTKPLPNDKLKKEIENFKFFVQYGNFKDINDYKDGDISYNPNVPSYSAKYQLNNDDYNVQQLRKRYDIPTKQAPKLLLKGDGDLKGSSVGSRSLEFTFVENKEENIYFTDSVQYTPSEDTRYESN
# Key:
# Test in all cases: glycan array binding signal (z-score within array); higher = stronger binding
# Conditions in all cases: glycan notation: IUPAC condensed, linker removed
# [1] = target: Neu5Ac(a2-6)Gal(b1-4)GlcNAc(b1-2)Man(a1-3)[Neu5Ac(a2-3)Gal(b1-4)GlcNAc(b1-2)Man(a1-6)]Man(b1-4)GlcNAc(b1-4)GlcNAc
# In short: (§1)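 Arrays were curated from the Consortium for Functional Glycomics database, 3228 in total, and kept only where the protein sequence was available. Binding is expressed as a within-array Z-score. This score was averaged across arrays of the same protein sequence at different concentrations or buffers and across linkers, and negative values can be read as non-binding.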
# [2] = target: Neu5Ac(a2-6)Gal(b1-4)GlcNAc(b1-2)Man(a1-3)[Neu5Ac(a2-6)Gal(b1-4)GlcNAc(b1-2)Man(a1-6)]Man(b1-4)GlcNAc(b1-4)GlcNAc
# In short: as §1
# [3] = target: Neu5Ac(a2-6)Gal(b1-4)GlcNAc(b1-2)Man(a1-3)[Neu5Ac(a2-6)Gal(b1-4)GlcNAc(b1-2)Man(a1-6)]Man(b1-4)GlcNAc(b1-4)[Fuc(a1-6)]GlcNAc
# In short: as §1
# [4] = target: Neu5Ac(a2-6)Gal(b1-4)GlcNAc(b1-2)Man(a1-6)Man(b1-4)GlcNAc(b1-4)GlcNAc
# In short: as §1
# [5] = target: Neu5Ac(a2-6)Gal(b1-4)GlcNAc(b1-2)Man(a1-6)[Gal(b1-4)GlcNAc(b1-2)Man(a1-3)]Man(b1-4)GlcNAc(b1-4)GlcNAc
# In short: as §1
# [6] = target: Neu5Ac(a2-6)Gal(b1-4)GlcNAc(b1-2)Man(a1-6)[GlcNAc(b1-2)Man(a1-3)]Man(b1-4)GlcNAc(b1-4)GlcNAc
# In short: as §1
# [7] = target: Neu5Ac(a2-6)Gal(b1-4)GlcNAc(b1-2)Man(a1-6)[Man(a1-3)]Man(b1-4)GlcNAc(b1-4)GlcNAc
# In short: as §1
# [8] = target: Neu5Ac(a2-6)Gal(b1-4)GlcNAc(b1-2)[Neu5Ac(a2-6)Gal(b1-4)GlcNAc(b1-4)]Man(a1-3)[GlcNAc(b1-4)][Neu5Ac(a2-6)Gal(b1-4)GlcNAc(b1-2)[Neu5Ac(a2-6)Gal(b1-4)GlcNAc(b1-6)]Man(a1-6)]Man(b1-4)GlcNAc(b1-4)GlcNAc
# In short: as §1
# [9] = target: Neu5Ac(a2-6)Gal(b1-4)GlcNAc(b1-2)[Neu5Ac(a2-6)Gal(b1-4)GlcNAc(b1-4)]Man(a1-3)[GlcNAc(b1-4)][Neu5Ac(a2-6)Gal(b1-4)GlcNAc(b1-4)Man(a1-6)]Man(b1-4)GlcNAc(b1-4)GlcNAc
# In short: as §1
# [10] = target: Neu5Ac(a2-6)Gal(b1-4)GlcNAc(b1-2)[Neu5Ac(a2-6)Gal(b1-4)GlcNAc(b1-6)]Man(a1-6)[Neu5Ac(a2-6)Gal(b1-4)GlcNAc(b1-2)Man(a1-3)][GlcNAc(b1-4)]Man(b1-4)GlcNAc(b1-4)GlcNAc
# In short: as §1
# [11] = target: Neu5Ac(a2-6)Gal(b1-4)GlcNAc(b1-3)Gal(b1-3)GlcNAc
# In short: as §1
# [12] = target: Neu5Ac(a2-6)Gal(b1-4)GlcNAc(b1-3)Gal(b1-4)GlcNAc
# In short: as §1
# [13] = target: Neu5Ac(a2-6)Gal(b1-4)GlcNAc(b1-3)Gal(b1-4)GlcNAc(b1-2)Man(a1-3)[Neu5Ac(a2-6)Gal(b1-4)GlcNAc(b1-3)Gal(b1-4)GlcNAc(b1-2)Man(a1-6)]GalNAc
# In short: as §1
# [14] = target: Neu5Ac(a2-6)Gal(b1-4)GlcNAc(b1-3)Gal(b1-4)GlcNAc(b1-3)Gal(b1-4)GlcNAc
# In short: as §1
# [15] = target: Neu5Ac(a2-6)Gal(b1-4)GlcNAc(b1-3)Gal(b1-4)GlcNAc(b1-3)Gal(b1-4)GlcNAc(b1-2)Man(a1-3)[Neu5Ac(a2-6)Gal(b1-4)GlcNAc(b1-3)Gal(b1-4)GlcNAc(b1-3)Gal(b1-4)GlcNAc(b1-2)Man(a1-6)]GalNAc
# In short: as §1
# [16] = target: Neu5Ac(a2-6)Gal(b1-4)GlcNAc(b1-3)Gal(b1-4)GlcNAc(b1-3)GalNAc
# In short: as §1
# [17] = target: Neu5Ac(a2-6)Gal(b1-4)GlcNAc(b1-3)Gal(b1-4)GlcNAc(b1-3)[Neu5Ac(a2-6)Gal(b1-4)GlcNAc(b1-3)Gal(b1-4)GlcNAc(b1-6)]GalNAc
# In short: as §1
# [18] = target: Neu5Ac(a2-6)Gal(b1-4)GlcNAc(b1-3)Gal(b1-4)GlcNAc(b1-6)[Gal(b1-3)]GalNAc
# In short: as §1
# [19] = target: Neu5Ac(a2-6)Gal(b1-4)GlcNAc(b1-3)Gal(b1-4)[Fuc(a1-3)]GlcNAc(b1-3)Gal(b1-4)[Fuc(a1-3)]GlcNAc
# In short: as §1
# [20] = target: Neu5Ac(a2-6)Gal(b1-4)GlcNAc(b1-3)GalNAc
# In short: as §1
# [21] = target: Neu5Ac(a2-6)Gal(b1-4)GlcNAc(b1-3)[Neu5Ac(a2-6)Gal(b1-4)GlcNAc(b1-6)]GalNAc
# In short: as §1
# [22] = target: Neu5Ac(a2-6)Gal(b1-4)GlcNAc(b1-6)GalNAc
# In short: as §1
# [23] = target: Neu5Ac(a2-6)Gal(b1-4)GlcNAc(b1-6)[Gal(b1-3)GlcNAc(b1-3)]Gal(b1-4)Glc
# In short: as §1
# [24] = target: Neu5Ac(a2-6)Gal(b1-4)GlcNAc(b1-6)[Gal(b1-3)]GalNAc
# In short: as §1
# [25] = target: Neu5Ac(a2-6)Gal(b1-4)GlcNAc6S
# In short: as §1
# Neu5Ac(a2-6)GalNAc = target: Neu5Ac(a2-6)GalNAc
# In short: as §1
# [26] = target: Neu5Ac(a2-6)GalNAc(b1-4)GlcNAc
# In short: as §1
# [27] = target: Neu5Ac(a2-6)GalNAc(b1-4)GlcNAc6S
# In short: as §1
# [28] = target: Neu5Ac(a2-6)GlcNAc(b1-4)GlcNAc
# In short: as §1
# [29] = target: Neu5Ac(a2-6)GlcNAc(b1-4)GlcNAc(b1-4)GlcNAc
# In short: as §1
binder,measurement,setting,value
B1,glycan array binding signal (z-score),[1],1.38
same,glycan array binding signal (z-score),[2],0.526
same,glycan array binding signal (z-score),[3],2.81
same,glycan array binding signal (z-score),[4],0.444
same,glycan array binding signal (z-score),[5],-1.57
same,glycan array binding signal (z-score),[6],-0.644
same,glycan array binding signal (z-score),[7],2.58
same,glycan array binding signal (z-score),[8],-0.219
same,glycan array binding signal (z-score),[9],0.093
same,glycan array binding signal (z-score),[10],-0.756
same,glycan array binding signal (z-score),[11],-0.235
same,glycan array binding signal (z-score),[12],-0.066
same,glycan array binding signal (z-score),[13],-0.25
same,glycan array binding signal (z-score),[14],-0.045
same,glycan array binding signal (z-score),[15],2.33
same,glycan array binding signal (z-score),[16],-0.757
same,glycan array binding signal (z-score),[17],1.43
same,glycan array binding signal (z-score),[18],-0.472
same,glycan array binding signal (z-score),[19],0.316
same,glycan array binding signal (z-score),[20],-0.087
same,glycan array binding signal (z-score),[21],-0.21
same,glycan array binding signal (z-score),[22],0.327
same,glycan array binding signal (z-score),[23],0.4
same,glycan array binding signal (z-score),[24],1.36
same,glycan array binding signal (z-score),[25],1.94
same,glycan array binding signal (z-score),Neu5Ac(a2-6)GalNAc,-0.602
same,glycan array binding signal (z-score),[26],-1.67
same,glycan array binding signal (z-score),[27],-0.378
same,glycan array binding signal (z-score),[28],1.36
same,glycan array binding signal (z-score),[29],1.87

# In another format: results already given
binder | measurement | setting | value
B1 | glycan array binding signal (z-score) | [24] | 1.36
same | glycan array binding signal (z-score) | [25] | 1.94

# — the supplement of paper PMC8728848
